Laboratory results as given in PubChem BioAssay AID1347075 (National Center for Advancing Translational Sciences (NCATS), 2019).
Where “and” joins values, the source holds several entries; their conditions need not be identical. Identical values can stand only once. The campaign covered roughly 400,000 compounds. About 5,500 (1.4%) were called active. Inconclusive results, whose numbers are uncertain, are shown with a selection of clear calls. The call rests on the fitted dose curve; in most records, active means well fitted cell-killing curve with a large enough effect; inconclusive means small, poorly fitted or top-dose-only effect, or effect the other way; inactive means flat fitted curve, though single readings scatter. Potencies of inconclusive entries are doubtful fits and often do not repeat.

Assay: qHTS assay for MDR1-selective chemotherapeutics: Primary screen using the parental adenocarcinoma cell KB-3-1; further: nearly all actives have a fitted effect of over 60% in size
Settings: KB-3-1 viability, CellTiter-Glo ATP luminescence, 72 h; activity change, negative = cytotoxic: at 46.1 µM (top of the series)
Method in brief: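 Cytotoxicity measured as CellTiter-Glo luminescence after 72 h at 37 C. Compound titrations were pinned onto drug-naive KB-3-1 parental adenocarcinoma cells grown in DMEM with 10% FBS, and normalized data fitted to concentration-response curves.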
On the % scale 0 is the no-effect control and ±100 the full control effect; potency means the concentration at half of the fitted maximal effect.

**Q.** With `CC(=O)Nc1cccc(-c2ccnc3c2CC(C(=O)NCc2cccs2)O3)c1` (stereo unspecified) as the compound, how does the Potency read?
**A.** active: 5.8 µM

**Q.** For `ON=C1c2cc(OCCN3CCCCC3)ccc2-c2ccc(OCCN3CCCCC3)cc21`, which Potency is on record?
**A.** inconclusive: 23.1 µM [cytotoxic, partial curve, poor fit]

**Q.** With `COc1ccc(S(=O)(=O)N2CCN(CCc3ccccc3)CC2)cc1` as the compound, how does the Potency read?
**A.** inconclusive: 16.4 µM [cytotoxic, single point]

**Q.** For `Cc1nc2c(o1)C(=O)c1ccccc1C2=Nc1ccccc1`, which Potency is on record?
**A.** active: 4.61 µM

**Q.** For `COc1ccc(S(=O)(=O)N2CCCCC2)cc1NCC(=O)Nc1ccc(C)cc1`, which Potency is on record?
**A.** inactive

**Q.** Which Potency does the source give for `O=[N+]([O-])c1ccc(CSc2nnc(-c3cccnc3)o2)cc1` here?
**A.** inconclusive: 0.517 µM [rising, full curve]

**Q.** Which Potency does the source give for `O=C1CN(S(=O)(=O)c2ccc(Cl)cc2)c2ccccc2N1` here?
**A.** inactive

**Q.** Which Potency does the source give for `N#Cc1cccc(NC(=O)C2CCCN(C(=O)c3ccc(Cl)cc3)C2)c1` (stereo unspecified) here?
**A.** inconclusive: 29.1 µM [cytotoxic, single point]

**Q.** Which Potency does the source give for `O=C(Cn1c(-c2ccccc2)c[n+]2ccsc12)c1ccc(Br)cc1` here?
**A.** inconclusive: 20.6 µM [cytotoxic, partial curve, poor fit]

**Q.** With `NC1=NS(=O)(=O)NC1c1ccc(F)cc1` (stereo unspecified) as the compound, how does the activity change, negative = cytotoxic read?
**A.** inconclusive: 5.56%

**Q.** With `COc1cc(NC(=O)c2ccc(Cl)cc2Cl)ccc1-c1cc2ccccc2oc1=O` as the compound, how does the Potency read?
**A.** inconclusive: 20.6 µM [cytotoxic, single point]

**Q.** With `CCCc1nc(SC)[nH]c(=O)c1C` as the compound, how does the Potency read?
**A.** inconclusive: 23.1 µM [cytotoxic, single point]

**Q.** For `COC(=O)c1cnc[nH]1`, which Potency is on record?
**A.** inconclusive: 16.4 µM [cytotoxic, partial curve, poor fit]

**Q.** With `COC(=O)c1ccc2c(c1)N(Cc1cc(C)ccc1C)C(=O)c1ccccc1S2(=O)=O` as the compound, how does the Potency read?
**A.** inconclusive: 23.1 µM [cytotoxic, single point]

**Q.** With `COc1ccc(OCc2cc(C(=O)NCC3CCCCO3)no2)c(Cl)c1` (stereo unspecified) as the compound, how does the Potency read?
**A.** inactive

**Q.** With `COc1cccc(C2CC(c3ccc(Br)cc3)=NN2C(=O)c2ccncc2)c1OC` (stereo unspecified) as the compound, how does the Potency read?
**A.** active: 18.4 µM

**Q.** Which Potency does the source give for `CC(C)Nc1nnc(SCC(=O)Nc2ccc3c(c2)C(=O)c2ccccc2C3=O)s1` here?
**A.** inconclusive: 11.6 µM [rising, partial curve, poor fit]

**Q.** With `N/C(=N\OC(=O)N1c2ccccc2Sc2ccccc21)c1ccc(Br)cc1` as the compound, how does the Potency read?
**A.** inconclusive: 0.082 µM [cytotoxic, full curve]

**Q.** With `O=C1CCCC2=C1C1(CCCC1)N=C(Nc1nc3ccccc3n1Cc1ccccc1)N2` as the compound, how does the Potency read?
**A.** inactive

**Q.** With `CN(C(=O)c1cccc(NC(=O)Cc2ccc(NC(=O)C3CCN(C(=O)c4ccccc4)CC3)cc2)c1)C1CC1` as the compound, how does the Potency read?
**A.** inconclusive: 0.0164 µM [rising, full curve]

**Q.** Which activity change, negative = cytotoxic does the source give for `CNC(=O)c1cnn(-c2nc(-c3ccc(OC)cc3)cs2)c1C(F)(F)F` here?
**A.** inconclusive: -34.7%

**Q.** With `CC(=O)n1cc(N(C(=O)CCl)c2ccc(C)cc2)c2ccccc21` as the compound, how does the Potency read?
**A.** active: 18.4 µM

**Q.** For `CCc1nnc(NC(=O)Cc2ccc(S(=O)(=O)N3CCCCC3)cc2)s1`, which Potency is on record?
**A.** inconclusive: 29.1 µM [cytotoxic, single point]

**Q.** Which Potency does the source give for `Cc1cccc(OCCCC(=O)NNC(=O)c2ccccn2)c1` here?
**A.** inconclusive: 20.6 µM [cytotoxic, single point]

**Q.** Which Potency does the source give for `O=C(O)CCn1ccc2cc(S(=O)(=O)N3CCCCCC3)ccc21` here?
**A.** inactive

**Q.** Which Potency does the source give for `CC(=NNC(=S)N1CC2CCC(CC2)C1)c1cnccn1` here?
**A.** inconclusive: 0.103 µM [cytotoxic, full curve, poor fit]

**Q.** For `Cc1ccc(NC(=O)OCC(F)(F)C(F)F)cc1NC(=O)OCC(F)(F)C(F)F`, which Potency is on record?
**A.** inconclusive: 29.1 µM [cytotoxic, single point]

**Q.** With `CSc1nc(N2CCN(Cc3ccc4c(c3)OCO4)CC2)c2ccccc2n1` as the compound, how does the Potency read?
**A.** inconclusive: 32.6 µM [cytotoxic, single point]

**Q.** Which Potency does the source give for `Cc1ccc(C(=O)c2c(N)c(C(=O)Nc3cccc(C(F)(F)F)c3)c3ccccn23)cc1` here?
**A.** inactive

**Q.** With `Cc1c(C(=O)OCCOC(C)C)[nH]c2c1C(=O)CC(c1ccco1)C2` (stereo unspecified) as the compound, how does the Potency read?
**A.** active: 0.517 µM

**Q.** For `O=C(Nc1ccc(S(=O)(=O)NCCc2ccccc2)cc1)c1ccncc1`, which Potency is on record?
**A.** inconclusive: 20.6 µM [cytotoxic, partial curve]

**Q.** Which Potency does the source give for `CCc1ccc(N2CC(C(=O)Nc3ccccc3N3CCCC3)CC2=O)cc1` (stereo unspecified) here?
**A.** inconclusive: 29.1 µM [cytotoxic, single point]

**Q.** For `Cc1sc2ncnc(N3CCC(C(=O)N(C)CC(=O)Nc4ccccc4Cl)CC3)c2c1C`, which Potency is on record?
**A.** inconclusive: 23.1 µM [cytotoxic, single point]

**Q.** Which Potency does the source give for `Cc1nc(NC(=O)/C=C/c2ccccc2)sc1C(=O)Nc1ccccc1` here?
**A.** inactive

**Q.** With `Cc1ccc(OCC(=O)NNC(=S)NC(=O)c2cccs2)c(C)c1` as the compound, how does the Potency read?
**A.** inconclusive: 32.6 µM [cytotoxic, single point]

**Q.** Which Potency does the source give for `CCCCOc1ccc(C(=O)Nc2cccc(-c3nc4ccccc4o3)c2C)cc1` here?
**A.** inactive

**Q.** For `Cc1ccc(C)c(NS(=O)(=O)c2cc(C(=O)Nc3cccc(N(C)S(C)(=O)=O)c3)ccc2C)c1`, which Potency is on record?
**A.** inconclusive: 2.31 µM [cytotoxic, full curve]

**Q.** Which Potency does the source give for `NC(CCc1ccccc1)c1csc(NC(=O)NCC2CCCCC2)n1` (stereo unspecified) here?
**A.** inconclusive: 29.1 µM [cytotoxic, single point]

**Q.** Which Potency does the source give for `COc1cc2oc3ccccc3c(=O)c2cc1OC` here?
**A.** inconclusive: 14.6 µM [cytotoxic, single point]

**Q.** For `CC(C)c1ccc(NC(=O)c2ccc(=O)n(Cc3ccccc3)c2)cc1`, which Potency is on record?
**A.** inconclusive: 18.4 µM [cytotoxic, partial curve, poor fit]

**Q.** With `CCCN(CC(=O)Nc1ccccc1C)C(=O)c1ccc2[nH]c3c(c2c1)CC(C)CC3` (stereo unspecified) as the compound, how does the Potency read?
**A.** inconclusive: 29.1 µM [cytotoxic, single point]

**Q.** Which Potency does the source give for `O=C(CSc1nc2nc(-c3cccs3)cc(C(F)(F)F)c2c(=O)[nH]1)Nc1c(F)c(F)c(F)c(F)c1F` here?
**A.** inconclusive: 29.1 µM [cytotoxic, single point]

**Q.** For `CN(CCCC(=O)O)c1ccc(N=Nc2ccc([N+](=O)[O-])cc2)cc1`, which Potency is on record?
**A.** inconclusive: 29.1 µM [cytotoxic, single point]

**Q.** For `Cc1[nH]c2ccccc2c1C(=O)CSc1nc2cc(S(=O)(=O)N3CCCCC3)ccc2o1`, which Potency is on record?
**A.** inconclusive: 29.1 µM [cytotoxic, single point]

**Q.** With `COc1cc(CNc2ncnc3c2ncn3[C@H]2CN(Cc3cc(OC)c(OC)c(OC)c3)C[C@@H](CO)O2)cc(OC)c1OC` as the compound, how does the Potency read?
**A.** inactive

**Q.** For `Cc1ccc(N(CC2=NCCN2)c2cccc(O)c2)cc1`, which Potency is on record?
**A.** inconclusive: 0.013 µM [rising, full curve]

**Q.** For `CCCSc1nnc(NC(=O)Nc2ccc(F)cc2)s1`, which Potency is on record?
**A.** active: 25.9 µM

**Q.** With `Cc1ccc(/C=N/Nc2ccc3c(C(F)(F)F)cc(C(F)(F)F)nc3n2)cc1` as the compound, how does the Potency read?
**A.** inconclusive: 20.6 µM [rising, partial curve, poor fit]

**Q.** With `Cc1ccccc1Cn1nnc(C(=O)Nc2cccc(C)c2C)c1N` as the compound, how does the Potency read?
**A.** inconclusive: 18.4 µM [cytotoxic, single point]

**Q.** With `COc1ccc(/C=C/C(O)=C2/C(=O)NC3(C)CC2c2ccccc2O3)c(OC)c1OC` (stereo unspecified) as the compound, how does the Potency read?
**A.** inconclusive: 16.4 µM [cytotoxic, single point]

**Q.** With `Cc1ccc(S(=O)(=O)NCCC(=O)Nc2ccc(Cl)c(Cl)c2)cc1` as the compound, how does the Potency read?
**A.** inconclusive: 16.4 µM [cytotoxic, partial curve, poor fit]

**Q.** Which Potency does the source give for `CCN1CCN(c2ccc(/C=C/c3ccnc4ccccc34)cc2)CC1` here?
**A.** inconclusive: 14.6 µM [cytotoxic, partial curve, poor fit]

**Q.** For `Cc1nc([N+](=O)[O-])c(C(=O)OCc2ccccc2Br)n1C`, which Potency is on record?
**A.** inconclusive: 10.3 µM [cytotoxic, partial curve, poor fit]

**Q.** With `c1ccc(-c2cn3nc(-c4ccccc4)sc3n2)cc1` as the compound, how does the Potency read?
**A.** inactive

**Q.** Which Potency does the source give for `O=[N+]([O-])c1nn(-c2ccccc2)n(O)c1=NCCc1ccccc1` here?
**A.** inconclusive: 16.4 µM [cytotoxic, single point]

**Q.** Which Potency does the source give for `Cc1cc(NC(c2ccc(Cl)cc2)c2ccc3cccnc3c2O)no1` (stereo unspecified) here?
**A.** inconclusive: 2.91 µM [cytotoxic, partial curve, poor fit]

**Q.** Which Potency does the source give for `COc1cc(OC)c(OC)cc1/C=c1\[nH]c(=O)/c(=C/c2cc(OC)c(OC)cc2OC)[nH]c1=O` here?
**A.** inconclusive: 0.82 µM [cytotoxic, full curve, poor fit]

**Q.** For `Cc1ccc(-n2c(-c3ccccc3)c[n+]3c2CCC3)cc1`, which Potency is on record?
**A.** active: 3.66 µM

**Q.** Which Potency does the source give for `Cc1ccc(-c2nnc(SCC(=O)N/N=C/c3ccccc3C(=O)O)n2C2CCCCC2)cc1` here?
**A.** inconclusive: 29.1 µM [rising, single point]

**Q.** Which Potency does the source give for `O=c1cc(/C=C/c2cccs2)[nH]c2ccccc12` here?
**A.** inconclusive: 20.6 µM [cytotoxic, single point]

**Q.** Which Potency does the source give for `CC1CC(C)C(=NNC(N)=O)C(C(O)CC2CCC(=O)NC2=O)C1` (stereo unspecified) here?
**A.** active: 11.6 µM

**Q.** Which Potency does the source give for `C=C[C@@H]1c2cc(C)ccc2N(S(=O)(=O)c2ccc(C)cc2)[C@H](c2ccc(OC(C)=O)cc2)C1(C#N)C#N` here?
**A.** inconclusive: 16.4 µM [cytotoxic, single point] and active: 6.51 µM

**Q.** For `c1ccc(-c2cccc(-c3ccccn3)n2)nc1`, which Potency is on record?
**A.** inconclusive: 4.11 µM [cytotoxic, full curve, poor fit]

**Q.** Which Potency does the source give for `Nc1c(C(=O)OCC2CCCO2)c2nc3ccccc3nc2n1C1CCCC1` (stereo unspecified) here?
**A.** inconclusive: 20.6 µM [cytotoxic, single point]

**Q.** For `Cc1ccc(OCCCC(=O)Nc2nc3ccccc3[nH]2)cc1`, which Potency is on record?
**A.** inconclusive: 29.1 µM [cytotoxic, single point]

**Q.** With `O=C(Nc1ccc2snnc2c1)Nc1cccc2ccccc12` as the compound, how does the Potency read?
**A.** active: 20.6 µM
